Data as given in patent US20220380443A1, “TARGETING NAPA-LINKED PEPTIDOGLYCAN FOR TREATING LYME DISEASE” (priority 2021, published 2022).
Some of these results come from one statement about several compounds together.

Test system: B. burgdorferi 5A11 and 5A11/napA
Test: Lysozyme and NaCl stress tests (microtiter growth, colony forming units)
Type: cell-based, Borrelia burgdorferi
Settings: single concentration of NaCl or Lysozyme for 18 hours, then plated; CFUs after 3 weeks (wild-type) or 6 weeks (mutant); FIG. 3A

## Lysozyme
  CFUs of napA mutant bacteria lower than wild-type after stress: 2-3 logs
